# Out of some 410,000 compounds screened, about 18,000 (4.4%) were called active. Inconclusive results, whose numbers are uncertain, are shown with a selection of clear calls. Rule as the data show it: active = activity change below about -60%; inconclusive = no clear call, values can overlap the other calls; inactive = above about -39%.
# Assay: qHTS Assay for inhibitors of the human cytomegalovirus (HCMV)
# Conditions: HFF cells, HCMV-luciferase reporter, 72 h; at 57.5 µM; active compounds read low
# In short: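 HFF cells seeded 16 h at 37C, treated with compounds, infected with luciferase-reporter HCMV at MOI 1 PFU/cell; luciferase read at 72 h post infection, normalized to buffer-only and Salinomycin controls.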
# % is scaled to controls: 0 for no effect and ±100 for the full control effect.
row,Compound,"activity change, negative = inhibition"
1,CS(=O)(=O)c1ccc(Cl)c(NC(=O)c2ccc(-n3cncn3)c([N+](=O)[O-])c2)c1,inconclusive: -45.3%
2,Cn1c(SCc2ccc([N+](=O)[O-])cc2)nnc1-c1cccnc1,inconclusive: -57.7%
3,O=S(=O)(NC(=NCc1ccccc1)c1ccccc1)c1ccccc1,inconclusive: -57.6%
4,O=C(C[n+]1ccc2ccccc2c1)c1cccc2ccccc12,inactive: 32.3%
5,CCCSc1nnc(NC(=O)c2nc(SC)ncc2Cl)s1,inconclusive: -40.5%
6,CCC(=O)N1CCC(C)(C(=O)Nc2nccc3ccccc23)C1 (centres undefined),inactive: 60.8%
7,Nc1ccccc1-[n+]1c(-c2ccccc2)cc(-c2ccccc2)cc1-c1ccccc1,inconclusive: 0%
8,CCCCCOC(=O)C1=C(C)Nc2nnnn2C1c1ccccc1Cl (centres undefined),inconclusive: -40.7%
9,O=c1c(-c2ccc(O)cc2)coc2cc(OC3OC(CO)C(O)C(O)C3O)ccc12 (centres undefined),inconclusive: -45.2%
10,Cc1cc(C)c(-c2c(O)c3c(n(C)c2=O)CC(C)(C)CC3=O)c(C)c1,inactive: 22.4%
11,Cn1nc(C(=O)N2CCN(c3ccccn3)CC2)c2ccccc2c1=O,inactive: 3.11%
12,Cc1ccc(C)c(N2C(=O)CC(N3CCN(Cc4ccc5c(c4)OCO5)CC3)C2=O)c1 (centres undefined),inconclusive: -48.1%
13,CN1CCN(C(=O)CN(c2ccccc2)S(=O)(=O)N(C)C)CC1,inconclusive: -49%
14,COc1ccccc1NC(=O)C1CCCN1S(=O)(=O)c1ccc(Cl)cc1 (centres undefined),inactive: 0.0905%
15,O=C(CCS(=O)(=O)c1ccccc1)Nc1ncc([N+](=O)[O-])s1,inconclusive: -49.9%
16,COc1ccc(N2CCN(C(=O)C3CCN(C(=O)c4cccc(Cl)c4)CC3)CC2)cc1,inconclusive: -40.1%
17,CCN(c1ccccc1)S(=O)(=O)c1ccc(C(=O)N(CCCN(C)C)c2nc3cc4c(cc3s2)OCO4)cc1,inconclusive: -47.8%
18,CNC(=O)NC(=O)COC(=O)/C=C/c1cccc(Br)c1,inconclusive: -42.2%
19,COc1cc(/C=C/C(C)=NNc2ccccc2)ccc1O,active: -61.3%
20,COc1coc(/C=C/C(=O)O)cc1=O,inconclusive: -43.8%
21,CC12CCC(=O)N1C(C(=O)NNC(=O)c1ccccc1Cl)CS2 (centres undefined),active: -90.4%

# As entered above:
# Entry of `COc1ccccc1NC(=O)C1CCCN1S(=O)(=O)c1ccc(Cl)cc1` (centres undefined) under activity change, negative = inhibition: inactive: 0.0905%
# Entry of `CCC(=O)N1CCC(C)(C(=O)Nc2nccc3ccccc23)C1` (centres undefined) under activity change, negative = inhibition: inactive: 60.8%
# Entry of `O=C(CCS(=O)(=O)c1ccccc1)Nc1ncc([N+](=O)[O-])s1` under activity change, negative = inhibition: inconclusive: -49.9%

# Next entries:

row,Compound,"activity change, negative = inhibition"
1,CCCCCc1c(-c2cccc(OC)c2)ncn1CCc1ccccc1OC,active: -95.4%
2,CC(=O)C1CCC2C3CCC4=CC(=O)CCC4(C)C3(Br)C(=O)CC12C (centres undefined),inconclusive: -49.6%
3,O=C(Nc1ccc(F)cc1F)c1ccc2c(O)c(S(=O)(=O)c3ccc(Cl)cc3)c(=O)[nH]c2c1,inactive: -4.75%
4,O=C(Cc1ccc(Cl)c(Cl)c1)NCC1(N2CCOCC2)CCCCC1,inconclusive: -56.1%
5,O=C(COC(=O)CCC(=O)c1cccs1)Nc1ccccc1[N+](=O)[O-],inconclusive: -46.2%
6,O=C(CN1CCN(Cc2ccccc2)CC1)NCCc1ccccc1,inactive: -22.6%
7,O=C(CN1CCN(C(=O)c2ccco2)CC1)Nc1ccccc1-c1ccccc1,inactive: -21.1%
8,N#Cc1ccc(C23CC4(C2)[C@H](CN(Cc2ccc(C(F)(F)F)cc2)[C@@H]4c2ccccc2)C3c2ccccc2)cc1 (some centres undefined),inconclusive: -47.5%
9,CC(C)[C@H](NC(=O)OCc1ccccc1)C(=O)OCC(=O)Nc1ccc(N2CCOCC2)cc1,inconclusive: -44.8%
10,O=C1C2C3C=CC(C4CC34)C2C(=O)N1/N=C/c1ccc(-c2cccc([N+](=O)[O-])c2)o1 (centres undefined),inconclusive: -48.7%
11,O=C(N/N=C/c1ccncc1)c1ccccc1,inconclusive: -40.8%
12,c1ccc(COCc2ccccc2)cc1,inactive: -4.31%
13,COCCOC(=O)C1=C(C)N=C2SCCC(=O)N2C1c1cccc(Br)c1 (centres undefined),inconclusive: -43.7%
14,Cc1ccc(C2OC3=C(C(=O)CC(C)(C)C3)C(N)=C2C#N)o1 (centres undefined),inactive: 9.96%
15,CC(C(=O)Nc1ccc2c(c1)OCCO2)N(C)Cc1c(F)cccc1Cl (centres undefined),inconclusive: -53.4%
16,CCc1ccc(C(=O)Nc2ccc(OC)c(S(=O)(=O)N3CCOCC3)c2)cc1,active: -88.8%
17,CC(=O)c1cc(C(=O)N2CCCC(CCC(=O)N(C)CCc3ccccn3)C2)cs1 (centres undefined),active: -66.5%
18,O=C1c2ccccc2NC(c2cccc([N+](=O)[O-])c2)N1O (centres undefined),inconclusive: -43%
19,CCN(C(=O)CSc1ccc2ccccc2n1)C1CCS(=O)(=O)C1 (centres undefined),inconclusive: -43%
20,COC(=O)c1c(C)[nH]c(C(=O)/C=C/c2ccccc2)c1C,inactive: -3.8%
21,Cc1cc(C)c(O)c(-c2cc(C(=O)Nc3cccnc3)[nH]n2)c1,inconclusive: -42.8%

row,Compound,"activity change, negative = inhibition"
1,COc1ccc(NC(=O)CN2CCC(Cc3ccccc3)CC2)cc1S(=O)(=O)N1CCOCC1,inconclusive: -51%
2,CCC(C)NC(=O)c1ccc(NC(=O)C2=C(C)OCCS2)cc1 (centres undefined),active: -61.5%
3,NC(=O)c1c(NC(=O)Cn2nc(C(=O)O)c3ccccc3c2=O)sc2c1CCC2,inconclusive: -42.9%
4,O=[N+]([O-])c1ccc(/C=C/c2ccc3ccccc3n2)cc1,inconclusive: -57.6%
5,COc1cccc(N2CCN(c3ncnc4onc(-c5ccc(F)cc5)c34)CC2)c1,inactive: 0.843%
6,O=C(Nc1ccc(Cl)c(Cl)c1)c1ccccc1NC(=O)C1CC=CCC1C(=O)O (centres undefined),inconclusive: -40.9%
7,CSC1=NC(C)(C)C=C(/C=C/c2ccc(Cl)cc2Cl)N1,active: -86.8%
8,CC(C)=C1SC(N2CCN(c3ccc(C)c(Cl)c3)CC2)=NC1=O,inconclusive: -40.4%
9,Cc1cccc(N(C)c2ccc3cc(S(=O)(=O)N4CCCC4)ccc3n2)c1,inconclusive: -48.2%
10,Cc1ccc(N2C(=O)NC(=O)/C(=C/c3ccc(-c4ccc(C(=O)O)c(Cl)c4)o3)C2=O)cc1,inconclusive: -46%
11,CCOCCCN(C(=O)Cn1nnc2ccccc21)C(C(=O)NCc1ccco1)c1ccncc1 (centres undefined),inactive: -13.4%
12,Clc1ccccc1/C=C/C=N/Nc1nc(N2CCOCC2)nc(N2CCOCC2)n1,inactive: -12.9%
13,COc1cc(C(=O)N2CCc3c([nH]c4ccccc34)C2c2ccc(C)cc2)cc(OC)c1OC (centres undefined),inactive: 80.6%
14,CCOC(=O)N/N=C\c1ccc([N+](=O)[O-])s1,inconclusive: -46.7%
15,CC1CC2CC(=O)CCC2(C)C2CCC3(C)C(O)CCC3C12 (centres undefined),inconclusive: -53%
16,C[C@H]1CNC(=O)c2c(C(=O)N3CCN(C(=O)OC(C)(C)C)CC3)ncn21,inconclusive: -45.1%
17,COc1ccc(C(=O)N/C(=C/c2cccs2)C(=O)NC(C)(C)C)cc1OC,inconclusive: -52.2%
18,Cc1ccc(S(=O)(=O)Nc2ccc3c(c2)nc(CN2CCCC2)n3C)cc1,inconclusive: -40.3%
19,CCOC1=C2CN(S(=O)(=O)c3ccc(Cl)cc3)[C@H](c3ccccc3)C[C@@H]2N(S(=O)(=O)c2ccc(C)cc2)[C@H](c2ccccc2)C1,inconclusive: -45.3%
20,O=C(CN1C(=O)CSCC1=O)NCc1ccc(F)cc1,inactive: -14.8%
21,Cc1ccc(CS(=O)Cc2ccc(C(=O)NC3CCC(C)CC3)o2)cc1 (centres undefined),inconclusive: -48.1%

row,Compound,"activity change, negative = inhibition"
1,Cc1c(-c2nsc(NC(=O)c3cccc(Cl)c3)n2)nnn1-c1ccccc1C(F)(F)F,inconclusive: -56.8%
2,OCC(O)/C=N/Nc1nc(N2CCCCC2)nc(N2CCCCC2)n1 (centres undefined),inconclusive: -53%
3,Cc1cc(Nc2ccccc2)c2c([N+](=O)[O-])c(C)cc(C)c2n1,inconclusive: -41.9%
4,CSc1ccc(CCNC(=O)CN2C(=O)c3cccnc3Oc3ccc(Cl)cc32)cc1,inconclusive: 0%
5,CCCOc1ccc(C(=O)Nc2ccc(Cl)c(-c3nc4ncccc4o3)c2)cc1,inconclusive: -42.9%
6,COC(=O)[C@@]12CCCCN1[C@H](c1ccc(-c3cccc(Cl)c3)cc1)[C@H]1C(=O)N(C)C(=O)[C@H]12,inactive: 0.493%
7,COC(=O)CCCC1=CC2=C(c3ccccc3)C(=O)C(C)(OC(=O)C3CCCC3)C(=O)C2=CN1Cc1ccc(OC)cc1 (centres undefined),inactive: 5.66%
8,COc1ccccc1N1CCN(CCC(=O)Nc2ccc3c(c2)OCO3)CC1,inactive: 90.8%
9,COc1ccccc1-c1c(C)nn2c(N3CCCCCC3)cc(C)nc12,active: -95.9%
10,O=C(O)Cc1ccc(NC(=O)Nc2ccc3c(c2)OCO3)cc1,inactive: 49.1%
11,CCN1CCN(c2ccc(Nc3ccnc4ccccc34)cc2)CC1,inconclusive: -44.5%
12,COc1ccc(N2C(=O)/C(=C/N(C)C)NC2=S)cc1,inconclusive: -41.7%
13,Cc1cccc(N(C)S(=O)(=O)c2nnc(NC(=O)c3ccco3)s2)c1,inactive: 0%
14,COc1cccc(NC(=O)CN2CCN(CC(=O)Nc3ccccc3Cl)CC2)c1,inconclusive: -47.4%
15,COc1ccc(S(=O)(=O)N2CCCCC2c2cc(C(=O)NCc3ccccc3)no2)cc1 (centres undefined),active: -61.5%
16,O=C(C(=O)N1CCCN(Cc2ccc(F)cc2)CC1)c1ccccc1,inconclusive: -56.3%
17,O=C(COc1ccccc1C(=O)NCC1CCCO1)Nc1ccc(Cl)cc1Cl (centres undefined),inconclusive: -40.7%
18,CCCc1sc(C(=O)Nc2nnc(C3CC3)s2)cc1CC,inconclusive: -41%
19,Cc1ccc([N+](=O)[O-])cc1NC(=S)NC(=O)c1cccnc1,inconclusive: -43.1%
20,Cc1nnc(SCC(=O)Nc2ccc(S(=O)(=O)N3CCCCC3)cc2)s1,active: -64.6%
21,CCOc1ccc(OCC)c(NS(=O)(=O)c2ccc(-c3coc(C)n3)cc2)c1,inconclusive: -41.8%
